The values below come from PMC3792889.

Chains of the proteins cited; added tags and fusions are not shown. Lines headed by an entry give the natural chain unless they say otherwise; changes in a name come on top.
UniProt P42859: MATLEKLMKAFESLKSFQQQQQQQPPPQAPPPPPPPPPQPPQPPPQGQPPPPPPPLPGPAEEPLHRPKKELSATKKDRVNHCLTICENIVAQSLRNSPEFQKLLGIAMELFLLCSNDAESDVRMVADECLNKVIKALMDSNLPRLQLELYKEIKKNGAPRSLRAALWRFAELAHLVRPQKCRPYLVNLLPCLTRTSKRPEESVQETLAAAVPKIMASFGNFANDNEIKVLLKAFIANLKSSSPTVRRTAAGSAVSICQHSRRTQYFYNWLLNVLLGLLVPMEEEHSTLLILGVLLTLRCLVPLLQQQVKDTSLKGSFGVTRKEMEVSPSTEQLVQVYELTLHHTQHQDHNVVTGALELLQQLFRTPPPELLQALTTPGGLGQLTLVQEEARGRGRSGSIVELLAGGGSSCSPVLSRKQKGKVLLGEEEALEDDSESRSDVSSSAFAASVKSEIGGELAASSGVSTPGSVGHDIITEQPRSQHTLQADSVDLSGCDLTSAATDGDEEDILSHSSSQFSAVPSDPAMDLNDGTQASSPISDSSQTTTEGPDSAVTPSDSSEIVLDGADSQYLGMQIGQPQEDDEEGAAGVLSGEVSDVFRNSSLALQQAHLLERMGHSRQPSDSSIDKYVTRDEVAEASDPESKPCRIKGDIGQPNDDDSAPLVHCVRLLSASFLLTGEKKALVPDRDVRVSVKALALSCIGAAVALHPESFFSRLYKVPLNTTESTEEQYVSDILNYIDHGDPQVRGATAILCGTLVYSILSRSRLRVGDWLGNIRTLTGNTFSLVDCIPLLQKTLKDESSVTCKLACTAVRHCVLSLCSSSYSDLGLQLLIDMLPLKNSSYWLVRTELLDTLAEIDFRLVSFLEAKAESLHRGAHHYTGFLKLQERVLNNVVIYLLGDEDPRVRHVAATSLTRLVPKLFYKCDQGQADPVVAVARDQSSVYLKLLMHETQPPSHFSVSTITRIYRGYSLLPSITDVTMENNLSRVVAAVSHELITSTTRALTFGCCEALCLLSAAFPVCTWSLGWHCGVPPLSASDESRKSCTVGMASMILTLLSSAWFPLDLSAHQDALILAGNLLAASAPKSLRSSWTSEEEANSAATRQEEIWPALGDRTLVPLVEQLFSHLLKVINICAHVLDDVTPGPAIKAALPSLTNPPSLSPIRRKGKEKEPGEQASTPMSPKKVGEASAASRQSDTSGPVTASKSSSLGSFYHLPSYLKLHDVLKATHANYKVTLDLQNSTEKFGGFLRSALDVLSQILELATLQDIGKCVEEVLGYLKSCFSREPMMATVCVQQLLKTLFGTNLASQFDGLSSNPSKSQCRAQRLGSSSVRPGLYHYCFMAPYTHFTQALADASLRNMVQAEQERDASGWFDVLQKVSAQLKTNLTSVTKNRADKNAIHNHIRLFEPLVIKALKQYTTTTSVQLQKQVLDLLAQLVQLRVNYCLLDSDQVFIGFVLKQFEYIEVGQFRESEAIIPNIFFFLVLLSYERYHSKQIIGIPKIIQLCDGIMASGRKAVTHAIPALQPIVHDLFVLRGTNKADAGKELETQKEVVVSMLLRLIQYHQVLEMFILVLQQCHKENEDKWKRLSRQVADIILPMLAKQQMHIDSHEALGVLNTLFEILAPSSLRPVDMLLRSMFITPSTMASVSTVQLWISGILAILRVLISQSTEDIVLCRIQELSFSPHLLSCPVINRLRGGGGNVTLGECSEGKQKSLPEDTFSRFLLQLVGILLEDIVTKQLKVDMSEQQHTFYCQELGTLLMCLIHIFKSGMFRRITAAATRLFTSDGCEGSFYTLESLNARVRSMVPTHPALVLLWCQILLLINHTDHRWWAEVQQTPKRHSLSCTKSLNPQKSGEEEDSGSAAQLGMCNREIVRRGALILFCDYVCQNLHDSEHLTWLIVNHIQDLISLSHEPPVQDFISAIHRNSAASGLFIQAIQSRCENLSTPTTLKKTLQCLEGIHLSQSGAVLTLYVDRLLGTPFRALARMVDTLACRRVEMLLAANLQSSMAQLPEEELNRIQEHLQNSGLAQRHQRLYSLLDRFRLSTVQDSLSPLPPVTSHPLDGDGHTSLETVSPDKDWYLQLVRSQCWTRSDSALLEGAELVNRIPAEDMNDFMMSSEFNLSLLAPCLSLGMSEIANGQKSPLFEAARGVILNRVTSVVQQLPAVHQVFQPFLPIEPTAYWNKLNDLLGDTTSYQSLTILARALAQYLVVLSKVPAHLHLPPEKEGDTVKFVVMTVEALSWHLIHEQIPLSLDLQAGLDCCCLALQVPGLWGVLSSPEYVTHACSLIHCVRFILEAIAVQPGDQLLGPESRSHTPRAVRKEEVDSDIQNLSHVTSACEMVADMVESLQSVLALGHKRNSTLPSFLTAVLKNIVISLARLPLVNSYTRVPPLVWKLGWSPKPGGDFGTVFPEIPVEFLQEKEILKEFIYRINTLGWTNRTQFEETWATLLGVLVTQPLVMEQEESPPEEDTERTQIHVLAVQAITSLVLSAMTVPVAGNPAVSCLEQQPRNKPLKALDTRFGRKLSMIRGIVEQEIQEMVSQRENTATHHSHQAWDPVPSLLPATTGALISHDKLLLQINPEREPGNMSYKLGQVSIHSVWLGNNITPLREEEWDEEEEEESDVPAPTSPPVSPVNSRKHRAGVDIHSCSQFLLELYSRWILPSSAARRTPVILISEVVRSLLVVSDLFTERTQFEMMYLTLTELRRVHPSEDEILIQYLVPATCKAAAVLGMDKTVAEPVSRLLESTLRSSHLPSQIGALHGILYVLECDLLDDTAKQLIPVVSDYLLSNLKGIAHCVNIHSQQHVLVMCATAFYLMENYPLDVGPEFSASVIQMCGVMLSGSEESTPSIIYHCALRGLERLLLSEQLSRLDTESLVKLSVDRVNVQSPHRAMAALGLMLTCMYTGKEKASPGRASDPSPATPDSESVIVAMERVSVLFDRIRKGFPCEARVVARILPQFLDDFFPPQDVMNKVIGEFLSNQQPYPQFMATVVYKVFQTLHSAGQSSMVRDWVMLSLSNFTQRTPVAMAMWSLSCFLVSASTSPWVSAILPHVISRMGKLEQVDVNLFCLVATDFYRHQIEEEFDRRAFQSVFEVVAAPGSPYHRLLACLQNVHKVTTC
UniProt Q60631: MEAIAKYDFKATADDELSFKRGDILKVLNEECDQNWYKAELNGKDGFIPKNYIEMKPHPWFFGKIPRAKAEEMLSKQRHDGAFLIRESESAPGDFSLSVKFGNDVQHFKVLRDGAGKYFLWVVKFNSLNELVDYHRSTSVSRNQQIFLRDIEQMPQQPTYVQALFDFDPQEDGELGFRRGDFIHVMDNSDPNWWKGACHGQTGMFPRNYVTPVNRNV

Assay [1] deals with full length mutated HTT with 111Q (endogenous, STHdhQ111/111 cells) (mouse (endogenous knock-in in STHdhQ111/111)) (UniProt P42859). Description: co-IP; reverse: whole cell extracts of STHdhQ7/7 and STHdhQ111/111 cells; 200 ug extract incubated overnight with anti-Htt antibody and Protein A/G beads; blot with anti-Grb2 (12% SDS-PAGE).
Assay [2] deals with Growth factor receptor protein binding protein 2 (Grb2), endogenous (mouse (endogenous in STHdhQ7/7, STHdhQ111/111 and Neuro2A cells)) (UniProt Q60631). Description: co-IP; whole cell extracts of STHdhQ7/7 and STHdhQ111/111 cells; 200 ug extract incubated overnight with anti-Grb2 antibody and Protein A/G beads; blot with anti-Htt (6% SDS-PAGE).

No constants are given. Whether binding was seen depends on the method and setting. Binding seen in cells or lysates may run through a third protein. Binding can be weak; no strength is given.

Take “Growth factor receptor protein binding protein 2 (Grb2), endogenous (from UniProt Q60631 1-217)”: the binding entry in assay [1] was “binds”. For the substance “full length mutated HTT with 111Q (endogenous, STHdhQ111/111 cells) (from UniProt P42859)”, in assay [2], the binding entry is given as “binds”.
